{
  "source": "the supplement of paper PMC8728848",
  "binders": {"B1": {"name": "EUL D1A second (Oryza sativa) (protein)", "chain": "GAATACTIGGVPVHTVRVFSAAGEDYCLTVRNGTACLAPKNPRDDYQHWIKDMRHSNKIRDEEGYPAFALVNKVTGEAIKHSTGQGHPVKLVPYNPEYQDESVLWTESKDVGKGFRCIRMVNNIYLNFDAFHGDKDHGGIHDGTEIVLWKWCEGDNQRWKILPWILEQKLISEEDLNSAVDHHHHHH"}},
  "experiment_in_all_cases": "glycan array binding signal (z-score within array); higher = stronger binding",
  "details_in_all_cases": "glycan notation: IUPAC condensed, linker removed",
  "key": {"[1]": {"target": "GalNAc(b1-4)GlcNAc(b1-2)Man", "in_short": "(§1)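 The Consortium for Functional Glycomics database supplied 3228 glycan arrays, of which those lacking an available protein sequence were dropped. The binding signal, a within-array Z-score, was averaged across arrays of the same protein sequence and across linkers. Negative scores can be read as non-binding.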"}, "[2]": {"target": "GalNAc(b1-4)GlcNAc(b1-2)Man(a1-3)[GalNAc(b1-4)GlcNAc(b1-2)Man(a1-6)]Man(b1-4)GlcNAc(b1-4)GlcNAc", "in_short": "as §1"}, "[3]": {"target": "GalNAc(b1-4)GlcNAc(b1-3)GalNAc(b1-4)GlcNAc", "in_short": "as §1"}, "GalNAc(b1-4)GlcNAc6S": {"target": "GalNAc(b1-4)GlcNAc6S", "in_short": "as §1"}, "GalNAc(b1-6)GalNAc": {"target": "GalNAc(b1-6)GalNAc", "in_short": "as §1"}, "GalNAc3S(b1-4)GlcNAc": {"target": "GalNAc3S(b1-4)GlcNAc", "in_short": "as §1"}, "GalNAc3S(b1-4)GlcNAc3S": {"target": "GalNAc3S(b1-4)GlcNAc3S", "in_short": "as §1"}, "[4]": {"target": "GalNAc3S(b1-4)[Fuc(a1-3)]GlcNAc", "in_short": "as §1"}, "GalNAc4S6S(b1-4)GlcNAc": {"target": "GalNAc4S6S(b1-4)GlcNAc", "in_short": "as §1"}, "GalNAc6S(b1-4)GlcNAc": {"target": "GalNAc6S(b1-4)GlcNAc", "in_short": "as §1"}, "Glc(a1-4)Glc": {"target": "Glc(a1-4)Glc", "in_short": "as §1"}, "[5]": {"target": "Glc(a1-4)Glc(a1-4)Glc(a1-4)Glc", "in_short": "as §1"}, "Glc(a1-6)Glc(a1-6)Glc": {"target": "Glc(a1-6)Glc(a1-6)Glc", "in_short": "as §1"}, "[6]": {"target": "Glc(a1-6)Glc(a1-6)Glc(a1-6)Glc", "in_short": "as §1"}, "Glc(b1-4)Glc": {"target": "Glc(b1-4)Glc", "in_short": "as §1"}, "Glc(b1-6)Glc": {"target": "Glc(b1-6)Glc", "in_short": "as §1"}, "GlcA(b1-3)Gal": {"target": "GlcA(b1-3)Gal", "in_short": "as §1"}, "GlcA(b1-3)GlcNAc": {"target": "GlcA(b1-3)GlcNAc", "in_short": "as §1"}, "GlcA(b1-6)Gal": {"target": "GlcA(b1-6)Gal", "in_short": "as §1"}, "[7]": {"target": "GlcA3S(b1-3)Gal(b1-4)GlcNAc(b1-2)Man", "in_short": "as §1"}, "[8]": {"target": "GlcA3S(b1-3)Gal(b1-4)GlcNAc(b1-3)Gal(b1-4)Glc", "in_short": "as §1"}, "[9]": {"target": "GlcNAc(a1-3)Gal(b1-4)GlcNAc", "in_short": "as §1"}, "[10]": {"target": "GlcNAc(a1-4)Gal(b1-3)GlcNAc", "in_short": "as §1"}, "[11]": {"target": "GlcNAc(a1-4)Gal(b1-4)GalNAc", "in_short": "as §1"}, "[12]": {"target": "GlcNAc(a1-4)Gal(b1-4)GlcNAc", "in_short": "as §1"}, "[13]": {"target": "GlcNAc(a1-4)Gal(b1-4)GlcNAc(b1-3)Gal(b1-4)Glc", "in_short": "as §1"}, "[14]": {"target": "GlcNAc(a1-4)Gal(b1-4)GlcNAc(b1-3)Gal(b1-4)GlcNAc", "in_short": "as §1"}, "[15]": {"target": "GlcNAc(a1-4)Gal(b1-4)GlcNAc(b1-3)Gal(b1-4)GlcNAc(b1-3)Gal(b1-4)GlcNAc", "in_short": "as §1"}, "[16]": {"target": "GlcNAc(a1-4)Gal(b1-4)GlcNAc(b1-3)Gal(b1-4)[Fuc(a1-3)]GlcNAc(b1-3)Gal(b1-4)[Fuc(a1-3)]GlcNAc", "in_short": "as §1"}, "[17]": {"target": "GlcNAc(a1-6)Gal(b1-4)GlcNAc", "in_short": "as §1"}, "[18]": {"target": "GlcNAc(b1-2)Gal(b1-3)GalNAc", "in_short": "as §1"}, "[19]": {"target": "GlcNAc(b1-2)Man(a1-3)[GlcNAc(b1-2)Man(a1-6)]Man(b1-4)GlcNAc(b1-4)GlcNAc", "in_short": "as §1"}, "[20]": {"target": "GlcNAc(b1-2)Man(a1-3)[GlcNAc(b1-2)Man(a1-6)]Man(b1-4)GlcNAc(b1-4)[Fuc(a1-6)]GlcNAc", "in_short": "as §1"}, "[21]": {"target": "GlcNAc(b1-2)Man(a1-3)[GlcNAc(b1-4)][GlcNAc(b1-2)Man(a1-6)]Man(b1-4)GlcNAc(b1-4)GlcNAc", "in_short": "as §1"}, "[22]": {"target": "GlcNAc(b1-2)Man(a1-3)[GlcNAc(b1-4)][GlcNAc(b1-2)Man(a1-6)]Man(b1-4)GlcNAc(b1-4)[Fuc(a1-6)]GlcNAc", "in_short": "as §1"}, "[23]": {"target": "GlcNAc(b1-2)[GlcNAc(b1-4)]Man(a1-3)[GlcNAc(b1-2)Man(a1-6)]Man(b1-4)GlcNAc(b1-4)GlcNAc", "in_short": "as §1"}, "[24]": {"target": "GlcNAc(b1-2)[GlcNAc(b1-4)]Man(a1-3)[GlcNAc(b1-4)][GlcNAc(b1-2)Man(a1-6)]Man(b1-4)GlcNAc(b1-4)GlcNAc", "in_short": "as §1"}, "[25]": {"target": "GlcNAc(b1-2)[GlcNAc(b1-4)]Man(a1-3)[GlcNAc(b1-4)][GlcNAc(b1-2)[GlcNAc(b1-6)]Man(a1-6)]Man(b1-4)GlcNAc(b1-4)GlcNAc", "in_short": "as §1"}, "[26]": {"target": "GlcNAc(b1-2)[GlcNAc(b1-4)]Man(a1-3)[GlcNAc(b1-4)][GlcNAc(b1-2)[GlcNAc(b1-6)]Man(a1-6)]Man(b1-4)GlcNAc(b1-4)[Fuc(a1-6)]GlcNAc", "in_short": "as §1"}, "[27]": {"target": "GlcNAc(b1-2)[GlcNAc(b1-6)]Man(a1-6)[GlcNAc(b1-2)Man(a1-3)]Man(b1-4)GlcNAc(b1-4)GlcNAc", "in_short": "as §1"}, "[28]": {"target": "GlcNAc(b1-2)[GlcNAc(b1-6)]Man(a1-6)[GlcNAc(b1-2)Man(a1-3)]Man(b1-4)GlcNAc(b1-4)[Fuc(a1-6)]GlcNAc", "in_short": "as §1"}, "[29]": {"target": "GlcNAc(b1-2)[GlcNAc(b1-6)]Man(a1-6)[GlcNAc(b1-4)][GlcNAc(b1-2)Man(a1-3)]Man(b1-4)GlcNAc(b1-4)GlcNAc", "in_short": "as §1"}, "GlcNAc(b1-3)Fuc": {"target": "GlcNAc(b1-3)Fuc", "in_short": "as §1"}, "GlcNAc(b1-3)Gal": {"target": "GlcNAc(b1-3)Gal", "in_short": "as §1"}, "[30]": {"target": "GlcNAc(b1-3)Gal(b1-3)GalNAc", "in_short": "as §1"}},
  "note": "The other results are listed elsewhere or left out.",
  "data": [
    {"binder": "B1", "values": [
      {"measurement": "glycan array binding signal (z-score)", "setting": "[1]", "value": -0.619},
      {"measurement": "glycan array binding signal (z-score)", "setting": "[2]", "value": 0.637},
      {"measurement": "glycan array binding signal (z-score)", "setting": "[3]", "value": 0.369},
      {"measurement": "glycan array binding signal (z-score)", "setting": "GalNAc(b1-4)GlcNAc6S", "value": 0.542},
      {"measurement": "glycan array binding signal (z-score)", "setting": "GalNAc(b1-6)GalNAc", "value": -0.616},
      {"measurement": "glycan array binding signal (z-score)", "setting": "GalNAc3S(b1-4)GlcNAc", "value": -0.821},
      {"measurement": "glycan array binding signal (z-score)", "setting": "GalNAc3S(b1-4)GlcNAc3S", "value": -0.9},
      {"measurement": "glycan array binding signal (z-score)", "setting": "[4]", "value": 0.681},
      {"measurement": "glycan array binding signal (z-score)", "setting": "GalNAc4S6S(b1-4)GlcNAc", "value": 2.11},
      {"measurement": "glycan array binding signal (z-score)", "setting": "GalNAc6S(b1-4)GlcNAc", "value": -0.272},
      {"measurement": "glycan array binding signal (z-score)", "setting": "Glc(a1-4)Glc", "value": 0.317},
      {"measurement": "glycan array binding signal (z-score)", "setting": "[5]", "value": -0.381},
      {"measurement": "glycan array binding signal (z-score)", "setting": "Glc(a1-6)Glc(a1-6)Glc", "value": 0.491},
      {"measurement": "glycan array binding signal (z-score)", "setting": "[6]", "value": 1.62},
      {"measurement": "glycan array binding signal (z-score)", "setting": "Glc(b1-4)Glc", "value": -0.487},
      {"measurement": "glycan array binding signal (z-score)", "setting": "Glc(b1-6)Glc", "value": -0.895},
      {"measurement": "glycan array binding signal (z-score)", "setting": "GlcA(b1-3)Gal", "value": 0.806},
      {"measurement": "glycan array binding signal (z-score)", "setting": "GlcA(b1-3)GlcNAc", "value": 0.189},
      {"measurement": "glycan array binding signal (z-score)", "setting": "GlcA(b1-6)Gal", "value": 0.199},
      {"measurement": "glycan array binding signal (z-score)", "setting": "[7]", "value": -1.01},
      {"measurement": "glycan array binding signal (z-score)", "setting": "[8]", "value": -1.27},
      {"measurement": "glycan array binding signal (z-score)", "setting": "[9]", "value": -0.059},
      {"measurement": "glycan array binding signal (z-score)", "setting": "[10]", "value": -0.003},
      {"measurement": "glycan array binding signal (z-score)", "setting": "[11]", "value": 0.11},
      {"measurement": "glycan array binding signal (z-score)", "setting": "[12]", "value": -0.37},
      {"measurement": "glycan array binding signal (z-score)", "setting": "[13]", "value": -0.602},
      {"measurement": "glycan array binding signal (z-score)", "setting": "[14]", "value": 0.723},
      {"measurement": "glycan array binding signal (z-score)", "setting": "[15]", "value": 0.272},
      {"measurement": "glycan array binding signal (z-score)", "setting": "[16]", "value": 2.44},
      {"measurement": "glycan array binding signal (z-score)", "setting": "[17]", "value": -0.904},
      {"measurement": "glycan array binding signal (z-score)", "setting": "[18]", "value": -0.221},
      {"measurement": "glycan array binding signal (z-score)", "setting": "[19]", "value": -0.578},
      {"measurement": "glycan array binding signal (z-score)", "setting": "[20]", "value": -0.631},
      {"measurement": "glycan array binding signal (z-score)", "setting": "[21]", "value": 0.9},
      {"measurement": "glycan array binding signal (z-score)", "setting": "[22]", "value": -0.831},
      {"measurement": "glycan array binding signal (z-score)", "setting": "[23]", "value": 1},
      {"measurement": "glycan array binding signal (z-score)", "setting": "[24]", "value": -0.669},
      {"measurement": "glycan array binding signal (z-score)", "setting": "[25]", "value": 0.522},
      {"measurement": "glycan array binding signal (z-score)", "setting": "[26]", "value": -0.431},
      {"measurement": "glycan array binding signal (z-score)", "setting": "[27]", "value": 0.179},
      {"measurement": "glycan array binding signal (z-score)", "setting": "[28]", "value": -0.879},
      {"measurement": "glycan array binding signal (z-score)", "setting": "[29]", "value": -0.303},
      {"measurement": "glycan array binding signal (z-score)", "setting": "GlcNAc(b1-3)Fuc", "value": 0.458},
      {"measurement": "glycan array binding signal (z-score)", "setting": "GlcNAc(b1-3)Gal", "value": -0.812},
      {"measurement": "glycan array binding signal (z-score)", "setting": "[30]", "value": 0.185}
    ]}
  ]
}
